Among the data in article PMC4740242 (Cell reports, 2016) are IC50 values, retold here.

The assay has as its system Ba/F3 cells expressing T674I FIP1L1-PDGFRα. The assay is described as follows: cells. Conditions: Mus musculus, BaF3, 24 h, read-out: IC50 cell growth/viability.

With `Cc1ccc(NC(=O)c2ccc(CN3CCN(C)CC3)cc2)cc1Nc1nccc(-c2cccnc2)n1` [imatinib], the IC50 stood at 13.6 µM.
